# Reference: PubChem BioAssay AID743121 (NCATS, 2013)
# Screen: 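Genes whose silencing strengthens cell killing by camptothecin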 (primary screen)
# Cell system: MDA-MB-231 cells, a human breast cancer line
# Reagent: single siRNA against human genes, 20 nM siRNA (0.8 pmol per well)
# Time to read-out: 120 h (drug added 48 h after transfection, read 72 h later)
# Conditions: camptothecin 20 nM (about EC30) for 72 h; vehicle 0.1% DMSO in parallel plates
# Read-out: 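CellTiter-Glo ATP signal, scaled to control siRNA as percent viability; sensitisation given as log2 of untreated divided by camptothecin-treated viability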
# Scale: log2 vehicle/camptothecin viability: higher = stronger sensitisation to camptothecin; viability with camptothecin and viability without drug: higher = more viable cells
# Rule for the call: 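Each gene scored by redundant siRNA activity (RSA) over its individual siRNA ratios; a gene is called active at p < 0.001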
# In all, the deposit lists about 26,000 reagents; this is a part drawn at random. Of all reagents, 167 (0.63%) were called active. 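Calls are per gene from RSA p-values that are not deposited; an individual active-marked siRNA can sensitise only weakly.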 Reagents against one gene are numbered here. No sequences are given here.
gene,reagent,log2 vehicle/camptothecin viability,viability with camptothecin (% of control),viability without drug (% of control),outcome
MME,1,0.241,66.1,78.1,inactive
MME,2,-0.381,52.7,40.5,inactive
MME,3,-0.0957,55.1,51.6,inactive
MME,4,0.00855,34.3,34.6,inactive
ASB8,1,0.0176,71.8,72.7,inactive
ASB8,2,-0.296,106,86.5,inactive
ASB8,3,0.0782,93.2,98.4,inactive
ASB8,4,-0.126,77.1,70.7,inactive
SLC7A8,1,-0.416,108,81.3,inactive
SLC7A8,2,-0.0889,111,105,inactive
SLC7A8,3,-0.308,40.7,32.9,inactive
VN1R1,1,-0.425,99,73.8,inactive
VN1R1,2,-0.0819,73.2,69.1,inactive
VN1R1,3,-0.213,61.7,53.2,inactive
VN1R1,4,0.622,39.4,60.6,inactive
PBX1,1,0.16,84.2,94.1,inactive
PBX1,2,-0.104,103,95.7,inactive
PBX1,3,-0.26,63.6,53.1,inactive
SPSB2,1,-0.0515,108,104,inactive
SPSB2,2,0.791,19.7,34.1,inactive
SPSB2,3,-0.14,70.9,64.4,inactive
TGFBRAP1,1,-0.214,81.8,70.5,inactive
TGFBRAP1,2,0.116,42,45.5,inactive
TGFBRAP1,3,-0.248,132,111,inactive
TGFBRAP1,4,-0.161,104,93.4,inactive
CTSG,1,0.205,64.8,74.7,inactive
CTSG,2,0.207,35.6,41.1,inactive
CTSG,3,0.00795,83.3,83.8,inactive
CTSG,4,0.165,98.2,110,inactive
G6PC3,1,-0.267,62.1,51.6,inactive
G6PC3,2,-0.125,69.4,63.7,inactive
G6PC3,3,-0.714,69.1,42.1,inactive
G6PC3,4,-0.204,5.92,5.14,inactive
GPNMB,1,-0.339,68,53.8,inactive
GPNMB,2,0.177,44.7,50.6,inactive
GPNMB,3,-0.309,53.1,42.8,inactive
SACM1L,1,0.0644,105,110,inactive
SACM1L,2,-0.0609,90.6,86.9,inactive
SACM1L,3,-0.196,75.6,66,inactive
SACM1L,4,-0.134,85.3,77.7,inactive
USP11,1,0.853,9.47,17.1,inactive
USP11,2,0.154,38.5,42.9,inactive
USP11,3,-0.168,86,76.5,inactive
CHAT,1,0.142,44.3,48.9,inactive
CHAT,2,-0.408,104,78.5,inactive
CHAT,3,-0.953,76.2,39.4,inactive
SRI,1,-0.344,84.3,66.4,inactive
SRI,2,-0.0886,108,101,inactive
SRI,3,0.395,49.4,65,inactive
SRI,4,-0.28,92.4,76.1,inactive
TRPC1,1,-0.057,114,110,inactive
TRPC1,2,-0.522,66.3,46.2,inactive
TRPC1,3,-0.174,59.3,52.5,inactive
TRPC1,4,-0.17,98.5,87.5,inactive
CLCN1,1,0.0813,92.9,98.3,inactive
CLCN1,2,-0.117,109,101,inactive
CLCN1,3,-0.339,67.6,53.4,inactive
CLCN1,4,0.0154,56.7,57.3,inactive
OLFML2B,1,0.164,85.4,95.7,inactive
OLFML2B,2,0.119,81,88,inactive
OLFML2B,3,-0.483,62.2,44.5,inactive
OLFML2B,4,-0.301,98.7,80.1,inactive
EDNRA,1,0.0875,96.2,102,inactive
EDNRA,2,0.0158,83.3,84.2,inactive
EDNRA,3,0.401,59,77.9,inactive
EDNRA,4,0.601,40.5,61.5,inactive
KIF1C,1,-0.267,111,92.3,inactive
KIF1C,2,-0.119,86.9,80,inactive
KIF1C,3,-0.742,69,41.3,inactive
KIF1C,4,0.0592,40.2,41.9,inactive
